Some results were stated once for a whole list of compounds, not compound by compound.
Tested on: A. flavus 3357
Assay: Heat-sensitizing antimicrobial bioassay (MFC) in A. flavus 3357
Type: cell-based, Aspergillus flavus
Details: 57.5° C. mild heat, 90 seconds, PBS
Experimental: Antimicrobial bioassay: The heat-sensitizing effect of twenty-eight compounds (phenolic derivatives, alkyl gallates, other food additives) (0.025, 0.050, 0.075, 0.100, 0.200, 0.300, 0.400, 0.500, 0.600 or 0.700 mM) and six drugs/fungicides (1, 2, 4, 8, 16, 32, 64 ppm) (Table 2) were examined using A. flavus 3357. Two hundred μL of fungal spores (1.5×10^5 to 2.1×10^5 CFU) dispersed in PBS was transferred into individual microfuge tube (1.5 mL vol.), where (1) “control” tube contained DMSO only, while (2) “treatment” tube contained test chemical/drug at respective concentration. The tubes were then treated with mild heat (57.5° C.) or maintained at room temperature (RT; 22.0° C.) for 90 seconds. After treatments, entire volume (200 μL) from each microfuge tube was spread onto fresh recovery PDA, and plates were incubated at respective temperatures. Fungal growth/survival was monitored after 48 hrs of incubation.
As described in A. flavus 3357 test (see above), microfuge tubes were treated with mild heat (57.5° C.) or maintained at RT (22.0° C.) (90 seconds). After heat treatments, entire volume (200 μL) from each microfuge tube was spread onto fresh recovery LB agar (for bacteria) or PDA (for fungi), and plates were incubated at the optimum temperature for respective microorganisms (i.e., 35° C. for Aspergillus, 37° C. for E. coli, 28° C. for Penicillium/A. tumefaciens, respectively). The growth/survival of test microorganisms were monitored after 48 to 72 hrs of incubation.
Determination of optimum temperature and time duration for screening heat sensitizers in A. flavus 3357: For the determination of the optimum temperature and time points for screening heat sensitizers, fungal (A. flavus 3357) survivability was tested by exposing fungal spores (1.5×10^5 to 2.1×10^5 CFU) to different temperatures (50, 55, 57.5, 60, 65° C.) and time points (0.5, 1.0, 1.5, 2.0, 2.5, 3.0, 3.5, 4.0, 4.5, 5.0 min).

SMILES | minimum fungicidal concentration (MFC; >99.999% fungal death) | minimum fungicidal concentration (MFC; >99.999% fungal death) (listed as caspofungin)
COC(=O)N(OC)c1ccccc1COc1ccn(-c2ccc(Cl)cc2)n1 [Pyraclostrobin] | above 64 μg/mL; ppm | –
CC[C@H](C)C[C@H](C)CCCCCCCCC(=O)N[C@H]1C[C@@H](O)[C@@H](NCCN)NC(=O)[C@@H]2[C@@H](O)CCN2C(=O)[C@H]([C@H](O)CCN)NC(=O)[C@H]([C@H](O)[C@@H](O)c2ccc(O)cc2)NC(=O)[C@@H]2C[C@@H](O)CN2C(=O)[C@H]([C@@H](C)O)NC1=O [Caspofungin] | – | above 64 μg/mL; ppm
N#Cc1c[nH]cc1-c1cccc2c1OC(F)(F)O2 [Fludioxonil] | above 64 μg/mL; ppm | –
Cc1cc(C)nc(Nc2ccccc2)n1 [Pyrimethanil] | above 64 μg/mL; ppm | –
Cc1cc(C2CC2)nc(Nc2ccccc2)n1 [Cyprodinil] | above 64 μg/mL; ppm | –
